# Measured values reported in the supplement of paper PMC12819154, “High-throughput peptide-centric local stability assay extends protein–ligand identification to membrane proteins, tissues and bacteria” (Nature Structural & Molecular Biology, 2025).
# Sequences of proteins named here, by UniProt entry; tags and fusion partners are left off. A change or cut given only in a name is not applied to a line headed by its entry.
# UniProt Q9Y4L5, whole entry: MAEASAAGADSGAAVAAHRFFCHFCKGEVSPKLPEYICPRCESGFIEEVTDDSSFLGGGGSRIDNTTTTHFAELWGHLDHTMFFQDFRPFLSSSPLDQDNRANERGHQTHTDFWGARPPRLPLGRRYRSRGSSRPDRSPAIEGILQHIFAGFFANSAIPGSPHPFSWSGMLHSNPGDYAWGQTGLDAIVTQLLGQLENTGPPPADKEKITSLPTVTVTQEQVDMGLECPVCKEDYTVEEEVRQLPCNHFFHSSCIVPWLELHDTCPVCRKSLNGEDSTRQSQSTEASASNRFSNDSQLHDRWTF
# UniProt Q9Y305: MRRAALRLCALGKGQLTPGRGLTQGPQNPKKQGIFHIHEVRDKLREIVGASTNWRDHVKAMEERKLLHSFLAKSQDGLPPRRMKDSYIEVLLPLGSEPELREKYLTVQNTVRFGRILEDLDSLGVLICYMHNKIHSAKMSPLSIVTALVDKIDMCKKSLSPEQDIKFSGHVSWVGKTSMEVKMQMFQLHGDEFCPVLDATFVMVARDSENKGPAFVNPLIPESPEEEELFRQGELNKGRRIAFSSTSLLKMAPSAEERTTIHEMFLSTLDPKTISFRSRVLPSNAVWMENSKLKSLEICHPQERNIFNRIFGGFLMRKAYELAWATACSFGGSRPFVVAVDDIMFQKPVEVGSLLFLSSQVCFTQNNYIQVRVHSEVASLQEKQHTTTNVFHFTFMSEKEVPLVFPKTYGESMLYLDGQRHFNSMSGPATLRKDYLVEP
# UniProt Q9Y324: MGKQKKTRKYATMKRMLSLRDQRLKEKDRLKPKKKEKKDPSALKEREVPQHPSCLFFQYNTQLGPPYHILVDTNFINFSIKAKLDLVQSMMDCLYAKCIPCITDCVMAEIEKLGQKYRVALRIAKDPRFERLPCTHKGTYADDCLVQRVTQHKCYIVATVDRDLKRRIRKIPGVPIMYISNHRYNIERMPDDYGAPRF
# UniProt Q9Y5P4: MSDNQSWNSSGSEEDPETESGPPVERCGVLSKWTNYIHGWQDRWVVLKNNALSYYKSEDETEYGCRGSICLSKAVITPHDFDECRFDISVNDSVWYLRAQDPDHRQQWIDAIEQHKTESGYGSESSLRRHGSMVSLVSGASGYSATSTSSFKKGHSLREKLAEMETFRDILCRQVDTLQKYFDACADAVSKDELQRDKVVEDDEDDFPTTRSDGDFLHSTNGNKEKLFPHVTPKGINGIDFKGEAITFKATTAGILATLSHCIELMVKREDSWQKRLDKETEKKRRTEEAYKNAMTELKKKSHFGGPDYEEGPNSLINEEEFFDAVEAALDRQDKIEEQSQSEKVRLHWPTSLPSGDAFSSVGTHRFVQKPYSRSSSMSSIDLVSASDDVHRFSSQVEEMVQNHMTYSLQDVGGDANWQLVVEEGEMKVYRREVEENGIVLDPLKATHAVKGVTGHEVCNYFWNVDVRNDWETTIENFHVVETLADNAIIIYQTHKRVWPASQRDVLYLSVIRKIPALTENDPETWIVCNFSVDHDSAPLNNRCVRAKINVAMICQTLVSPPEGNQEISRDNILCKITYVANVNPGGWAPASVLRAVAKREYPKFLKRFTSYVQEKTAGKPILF
# UniProt Q9Y294, whole entry: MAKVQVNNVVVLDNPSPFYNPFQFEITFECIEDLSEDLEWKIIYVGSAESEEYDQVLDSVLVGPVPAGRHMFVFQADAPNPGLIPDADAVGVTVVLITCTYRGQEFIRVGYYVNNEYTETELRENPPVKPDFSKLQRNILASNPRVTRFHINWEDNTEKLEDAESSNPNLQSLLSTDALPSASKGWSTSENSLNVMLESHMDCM
# UniProt Q9Y5S1: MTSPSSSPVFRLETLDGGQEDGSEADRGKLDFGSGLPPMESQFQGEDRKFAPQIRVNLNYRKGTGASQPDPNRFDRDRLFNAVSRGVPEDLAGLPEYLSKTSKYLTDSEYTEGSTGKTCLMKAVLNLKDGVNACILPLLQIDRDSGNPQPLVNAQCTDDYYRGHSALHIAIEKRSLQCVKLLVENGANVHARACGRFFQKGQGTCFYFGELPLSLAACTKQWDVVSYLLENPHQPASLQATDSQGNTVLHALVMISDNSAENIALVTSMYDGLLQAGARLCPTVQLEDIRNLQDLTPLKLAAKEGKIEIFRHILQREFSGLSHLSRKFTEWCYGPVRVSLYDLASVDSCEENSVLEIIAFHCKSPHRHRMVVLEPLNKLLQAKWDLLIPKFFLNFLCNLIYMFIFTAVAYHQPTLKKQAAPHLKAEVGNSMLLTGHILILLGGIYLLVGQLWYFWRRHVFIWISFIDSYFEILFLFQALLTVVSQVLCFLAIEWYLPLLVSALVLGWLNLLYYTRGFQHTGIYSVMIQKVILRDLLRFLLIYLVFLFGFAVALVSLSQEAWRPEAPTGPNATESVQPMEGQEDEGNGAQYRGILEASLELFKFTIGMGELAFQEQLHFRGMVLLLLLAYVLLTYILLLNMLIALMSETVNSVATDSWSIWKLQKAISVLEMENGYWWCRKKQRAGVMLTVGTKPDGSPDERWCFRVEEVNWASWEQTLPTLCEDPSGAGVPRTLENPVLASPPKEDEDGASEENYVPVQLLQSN
# UniProt Q9Y5K5, whole entry: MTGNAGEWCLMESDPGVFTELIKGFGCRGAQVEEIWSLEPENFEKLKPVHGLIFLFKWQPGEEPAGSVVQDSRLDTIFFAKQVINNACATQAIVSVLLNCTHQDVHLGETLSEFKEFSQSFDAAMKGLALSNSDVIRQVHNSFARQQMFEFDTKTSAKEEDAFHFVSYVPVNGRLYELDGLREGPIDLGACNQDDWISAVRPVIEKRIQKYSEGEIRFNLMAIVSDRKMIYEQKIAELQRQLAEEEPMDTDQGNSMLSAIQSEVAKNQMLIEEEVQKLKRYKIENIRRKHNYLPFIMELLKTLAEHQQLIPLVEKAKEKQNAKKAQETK
# UniProt Q9Y2L5: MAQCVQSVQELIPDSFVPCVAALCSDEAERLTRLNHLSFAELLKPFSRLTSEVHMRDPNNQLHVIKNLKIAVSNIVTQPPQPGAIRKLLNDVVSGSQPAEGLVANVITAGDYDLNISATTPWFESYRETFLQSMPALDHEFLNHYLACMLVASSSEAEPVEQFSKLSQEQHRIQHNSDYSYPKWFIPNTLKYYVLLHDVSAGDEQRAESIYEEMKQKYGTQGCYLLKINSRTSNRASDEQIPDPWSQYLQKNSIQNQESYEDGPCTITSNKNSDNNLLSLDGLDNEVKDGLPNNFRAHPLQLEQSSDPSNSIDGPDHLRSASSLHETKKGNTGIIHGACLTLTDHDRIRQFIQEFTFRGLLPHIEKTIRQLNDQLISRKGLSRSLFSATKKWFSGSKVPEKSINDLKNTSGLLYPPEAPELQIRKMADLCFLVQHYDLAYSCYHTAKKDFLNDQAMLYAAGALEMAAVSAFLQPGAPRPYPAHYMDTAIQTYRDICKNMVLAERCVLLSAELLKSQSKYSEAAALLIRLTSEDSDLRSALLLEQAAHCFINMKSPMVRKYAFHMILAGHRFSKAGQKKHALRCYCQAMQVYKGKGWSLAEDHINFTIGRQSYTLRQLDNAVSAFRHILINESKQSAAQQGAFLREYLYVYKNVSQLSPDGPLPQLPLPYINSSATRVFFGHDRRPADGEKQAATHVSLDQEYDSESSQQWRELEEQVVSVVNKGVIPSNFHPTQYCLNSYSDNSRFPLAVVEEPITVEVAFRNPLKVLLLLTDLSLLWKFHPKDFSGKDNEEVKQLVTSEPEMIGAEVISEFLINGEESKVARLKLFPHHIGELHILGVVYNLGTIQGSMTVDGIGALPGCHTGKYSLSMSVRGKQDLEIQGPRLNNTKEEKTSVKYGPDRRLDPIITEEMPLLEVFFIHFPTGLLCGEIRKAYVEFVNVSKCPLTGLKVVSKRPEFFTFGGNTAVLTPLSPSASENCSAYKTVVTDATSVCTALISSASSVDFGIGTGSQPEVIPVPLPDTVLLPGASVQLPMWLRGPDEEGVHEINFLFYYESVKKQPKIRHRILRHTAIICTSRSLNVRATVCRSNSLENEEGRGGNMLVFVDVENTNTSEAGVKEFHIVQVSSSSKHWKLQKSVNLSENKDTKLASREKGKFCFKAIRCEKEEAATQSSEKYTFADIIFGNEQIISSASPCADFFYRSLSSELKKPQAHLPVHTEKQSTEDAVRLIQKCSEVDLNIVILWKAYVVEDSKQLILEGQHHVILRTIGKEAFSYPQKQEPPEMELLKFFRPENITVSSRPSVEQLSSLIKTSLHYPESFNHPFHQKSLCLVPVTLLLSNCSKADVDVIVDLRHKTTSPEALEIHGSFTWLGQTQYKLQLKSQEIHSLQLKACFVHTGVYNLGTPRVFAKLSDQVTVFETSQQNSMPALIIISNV
# UniProt Q9Y2Q3: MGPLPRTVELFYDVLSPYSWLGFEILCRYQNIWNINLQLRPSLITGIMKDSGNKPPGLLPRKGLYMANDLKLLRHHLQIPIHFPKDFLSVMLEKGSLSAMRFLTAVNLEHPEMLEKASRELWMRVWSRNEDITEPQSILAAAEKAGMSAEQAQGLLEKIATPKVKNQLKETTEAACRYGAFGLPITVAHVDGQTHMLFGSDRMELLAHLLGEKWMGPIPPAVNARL
# UniProt Q9Y496, whole entry: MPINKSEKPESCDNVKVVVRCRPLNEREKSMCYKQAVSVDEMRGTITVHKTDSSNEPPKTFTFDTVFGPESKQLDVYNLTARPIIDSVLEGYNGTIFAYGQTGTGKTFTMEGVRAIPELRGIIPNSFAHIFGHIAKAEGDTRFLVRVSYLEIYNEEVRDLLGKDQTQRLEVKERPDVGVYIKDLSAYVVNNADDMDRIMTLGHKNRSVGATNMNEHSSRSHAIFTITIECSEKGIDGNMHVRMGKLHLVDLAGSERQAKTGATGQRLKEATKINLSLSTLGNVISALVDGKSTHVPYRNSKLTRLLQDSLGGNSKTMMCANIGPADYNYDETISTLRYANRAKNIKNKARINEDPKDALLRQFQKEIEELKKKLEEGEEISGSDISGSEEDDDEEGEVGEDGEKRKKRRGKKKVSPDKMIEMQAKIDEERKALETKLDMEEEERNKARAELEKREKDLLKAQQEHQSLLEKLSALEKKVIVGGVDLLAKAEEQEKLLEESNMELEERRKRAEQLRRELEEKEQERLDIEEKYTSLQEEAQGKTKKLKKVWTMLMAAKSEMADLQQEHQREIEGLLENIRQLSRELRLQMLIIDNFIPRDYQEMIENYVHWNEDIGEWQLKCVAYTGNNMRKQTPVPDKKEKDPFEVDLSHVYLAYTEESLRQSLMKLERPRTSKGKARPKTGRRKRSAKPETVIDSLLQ
# UniProt Q9Y2M0: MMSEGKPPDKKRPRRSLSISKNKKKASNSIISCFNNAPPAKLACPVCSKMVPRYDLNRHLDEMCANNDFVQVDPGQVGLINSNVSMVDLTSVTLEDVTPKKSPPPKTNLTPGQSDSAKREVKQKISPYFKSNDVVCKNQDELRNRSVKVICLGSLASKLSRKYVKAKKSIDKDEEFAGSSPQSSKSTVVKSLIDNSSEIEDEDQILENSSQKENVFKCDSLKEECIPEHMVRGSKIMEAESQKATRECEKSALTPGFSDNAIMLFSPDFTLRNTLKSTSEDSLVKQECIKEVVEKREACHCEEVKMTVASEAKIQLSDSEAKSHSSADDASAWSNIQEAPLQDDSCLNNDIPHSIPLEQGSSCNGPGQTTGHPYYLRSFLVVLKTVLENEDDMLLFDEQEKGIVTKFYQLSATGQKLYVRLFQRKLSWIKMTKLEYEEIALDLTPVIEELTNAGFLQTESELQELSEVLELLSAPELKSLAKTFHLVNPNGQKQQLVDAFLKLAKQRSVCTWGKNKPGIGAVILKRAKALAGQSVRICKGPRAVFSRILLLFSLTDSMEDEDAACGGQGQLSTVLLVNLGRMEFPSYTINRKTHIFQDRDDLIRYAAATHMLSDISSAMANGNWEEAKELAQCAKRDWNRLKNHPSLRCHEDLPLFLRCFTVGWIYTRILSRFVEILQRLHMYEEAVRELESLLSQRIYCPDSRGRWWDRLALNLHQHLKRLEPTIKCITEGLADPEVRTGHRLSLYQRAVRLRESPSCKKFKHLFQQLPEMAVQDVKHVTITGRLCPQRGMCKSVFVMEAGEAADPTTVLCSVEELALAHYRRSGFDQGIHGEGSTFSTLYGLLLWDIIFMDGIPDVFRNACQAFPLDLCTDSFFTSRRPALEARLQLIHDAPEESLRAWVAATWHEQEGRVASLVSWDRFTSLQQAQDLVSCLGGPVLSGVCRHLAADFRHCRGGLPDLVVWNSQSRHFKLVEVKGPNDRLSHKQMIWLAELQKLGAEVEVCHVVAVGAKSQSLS
# UniProt Q9Y6G5, whole entry: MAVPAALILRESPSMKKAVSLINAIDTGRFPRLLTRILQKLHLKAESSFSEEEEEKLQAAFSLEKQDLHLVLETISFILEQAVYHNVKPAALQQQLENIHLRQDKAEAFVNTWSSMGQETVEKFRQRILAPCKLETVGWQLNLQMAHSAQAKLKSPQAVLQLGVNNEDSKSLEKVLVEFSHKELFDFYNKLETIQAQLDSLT
# The other results are listed elsewhere or left out. Most values lie at the level of the controls, where differences are scatter.
# Compound: Cc1nc(Nc2ncc(C(=O)Nc3c(C)cccc3Cl)s2)cc(N2CCN(CCO)CC2)n1 [dasatinib]
# Assay: log2 fold change of tryptic peptide abundance, ligand vs vehicle (limited proteolysis) (log2 ratio); higher = more trypsin-susceptible (destabilized)
# Conditions: ligand concentration: 5 uM; sample: K562 cleared lysate
row,Target,log2 fold change
1,"RNF115 (peptide sequence: GHQTHTDFWGARPPR, peptide start residue: 106) (UniProt Q9Y4L5)",-0.131
2,"BTRC (peptide sequence: TYTYISR, peptide start residue: 599) (UniProt Q9Y297)",0.281
3,"NOC2L (peptide sequence: LFHEVVQAFR, peptide start residue: 169) (UniProt Q9Y3T9)",-1.16
4,"MTO1 (peptide sequence: GMIVIGLETHPAGR, peptide start residue: 199) (UniProt Q9Y2Z2)",0.225
5,"CAPN7 (peptide sequence: KVIIDDQLPVDHK, peptide start residue: 344) (UniProt Q9Y6W3)",-0.35
6,"ACOT9 (peptide sequence: SLEICHPQER, peptide start residue: 295) (UniProt Q9Y305)",-0.149
7,"UniProt Q9Y2I7 (peptide sequence: VSQVYVAIDER, peptide start residue: 1420)",-0.257
8,"FCF1 (peptide sequence: MPDDYGAPR, peptide start residue: 189) (UniProt Q9Y324)",0.473
9,"UniProt Q9Y5P4 (peptide sequence: SDGDFLHSTNGNKEK, peptide start residue: 212)",-0.119
10,"TPRKB (peptide sequence: NLPEIMNITEVKK, peptide start residue: 135) (UniProt Q9Y3C4)",0.0707
11,"BCS1L (peptide sequence: GYLLYGPPGCGK, peptide start residue: 225) (UniProt Q9Y276)",0.431
12,"ASF1A (peptide sequence: ENPPVKPDFSK, peptide start residue: 124) (UniProt Q9Y294)",-0.0918
13,"UniProt Q9Y4D8 (peptide sequence: CVEWEKEEGGSTEAVHSGLAR, peptide start residue: 1334)",0.608
14,"TRPV2 (peptide sequence: LETLDGGQEDGSEADRGK, peptide start residue: 12) (UniProt Q9Y5S1)",-0.388
15,"TDRKH (peptide sequence: IAHSAETR, peptide start residue: 204) (UniProt Q9Y2W6)",0.574
16,"RAD54L2 (peptide sequence: ESVLQLACLK, peptide start residue: 927) (UniProt Q9Y4B4)",-0.357
17,"UCHL5 (peptide sequence: FNLMAIVSDR, peptide start residue: 218) (UniProt Q9Y5K5)",-0.311
18,"UniProt Q9Y2L5 (peptide sequence: QSAAQQGAFLR, peptide start residue: 634)",0.143
19,"HBS1L (peptide sequence: ALSGVLEQDRVQSLKDK, peptide start residue: 115) (UniProt Q9Y450)",-0.641
20,"GSTK1 (peptide sequence: FLTAVNLEHPEMLEK, peptide start residue: 102) (UniProt Q9Y2Q3)",-0.112
21,"KIF3A (peptide sequence: KVIVGGVDLLAK, peptide start residue: 478) (UniProt Q9Y496)",-0.625
22,"TRRAP (peptide sequence: AQATAQDPVFQK, peptide start residue: 3404) (UniProt Q9Y4A5)",0.354
23,"LRRC42 (peptide sequence: EKTDHFIFTYTR, peptide start residue: 67) (UniProt Q9Y546)",-0.347
24,"KLHDC2 (peptide sequence: FYMLDSR, peptide start residue: 118) (UniProt Q9Y2U9)",0.349
25,"MRPL42 (peptide sequence: VEHLEEGPMIEQLSK, peptide start residue: 100) (UniProt Q9Y6G3)",0.471
26,"UniProt Q9Y2M0 (peptide sequence: SIDKDEEFAGSSPQSSK, peptide start residue: 169)",-0.738
27,"COMMD10 (peptide sequence: AVSLINAIDTGRFPR, peptide start residue: 18) (UniProt Q9Y6G5)",-0.286
28,"ATP11B (peptide sequence: CSPTHISR, peptide start residue: 1144) (UniProt Q9Y2G3)",-0.256

# Another view of part of the listing above:
row | Target | log2 fold change
16 | RAD54L2 (peptide sequence: ESVLQLACLK, peptide start residue: 927) (UniProt Q9Y4B4) | -0.357
25 | MRPL42 (peptide sequence: VEHLEEGPMIEQLSK, peptide start residue: 100) (UniProt Q9Y6G3) | 0.471
